From patent publication US10597378B2 (priority 2017, dated 2020)

Columns and labels:
[1] = Charcoal meal test (gastrointestinal transit); conditions: B6, mouse, in vivo, sc
Experimental: B6 mice were fasted for at least 16 h before the study with free access to water. In a charcoal meal test, various doses of drugs were administered to the mice 30 min prior to the administration of an aqueous activated charcoal suspension (10% activated charcoal+5% gum Arabic; 0.3 mL). After 30 min, the mice were euthanized by intraperitoneal administration of a ketamine/xylazine cocktail (Sigma) followed by cervical dislocation and the total length of migration of the charcoal meal was measured from the pylorus to the ileocecal junction of the small intestine. The length of the intestine from pylorus to the caecum and the distance traveled by the charcoal were measured. The migration index was expressed as percentage of the distance traveled by the peristaltic charcoal meal relative to the total length of the small intestine, calculated according to the following formula. % of Gastrointestinal transit=Distance Travelled by Charcoal Meal/Full Length of the Small Intestine×100%
Gastrointestinal propulsion was calculated as the percentage of the distance travelled by the charcoal meal relative to the total length of the small intestine, to control for individual variations. The percentage inhibition relative to the control was also calculated as: % Gastrointestinal Inhibition (GI)=(Control group−Drug-treated group)/Control group×100% […]

mice = test: Tolerance and cross-tolerance, tail-flick test after 5 days twice-daily treatment; format: in vivo, mouse; conditions: day 6, equianalgesic dose
[2] = system: wild-type C57BL/6 (B6) mice; test: Tail flick test (acute thermal pain); format: in vivo; conditions: Mus musculus, sc; single subcutaneous injection; read-out: ED50 of antinociception

In the case of `CN1CC[C@]23c4c5ccc(O)c4O[C@H]2[C@@H](O)C=C[C@H]3[C@H]1C5.Cl` [morphine, Morphine hydrochloride, reference compound], the ED50 at 60 min [1] is reported as 1.8 mg/kg, the “antinociceptive effects on challenge in Compound 67-tolerant mice” value (mice) is reported as “rescued” and the “antinociceptive effects on challenge in morphine-tolerant mice” value (mice) is reported as “not observed”. It also gave an ED50 [2] of 2.4 mg/kg.
